Data: PubChem BioAssay AID651640 (Broad Institute, 2012)
“And” between values parts separate entries of the source, which are not always exact repeats. Equal entries are not always repeated. In all, about 350,000 compounds went through this assay and about 6,000 (1.7%) were called active. Inconclusive results, whose numbers are uncertain, are shown with a selection of clear calls. Rule as the data show it: active = CPE inhibition above about 20% (passing the limit was not always enough); inconclusive = no clear call, values can overlap the other calls; tested in BHK-21 cells.

assay: protection of cells from dengue 2 killing – plate reader, single concentration, primary screen (AID 651640); conditions: DENV2-infected cells, cytopathic effect rescue, at 9.99 µM, hits give high values;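 also: 0% = median of neutral control wells and 100% = median of positive control wells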

Row | SMILES | CPE inhibition
1 | C[C@H](NC(=O)[C@@H]1CCCN1C(=O)[C@@H]1CCCN1C(=O)c1ccc(Cl)cc1)c1ccccc1 | inconclusive: 24.6%
2 | CS(=O)(=O)Nc1ccc2c(c1)[C@@H]1C[C@@H](CC(=O)O)O[C@H](CO)[C@@H]1O2 | inactive: -1.7%
3 | O=C1COc2ccc(S(=O)(=O)N3CCCC3)cc2N1 | inactive: 0.651%
4 | CC(C)NC(=O)Nc1ccc2c(c1)C(=O)N([C@@H](C)CO)C[C@@H](C)[C@H](CN(C)C(=O)c1ccccc1)OCCCC[C@@H](C)O2 | inconclusive: 30.6%
5 | COc1ccccc1CN1C[C@@H](C)[C@H](OC)CN(C)C(=O)c2ccc(NC(C)=O)cc2OC[C@@H]1C | inconclusive: 50.8%
6 | O=C1C(=O)c2ccccc2C(O)=C1c1cccc([N+](=O)[O-])c1 | inactive: 2.6%
7 | O=C(N[C@H]1c2ccccc2C[C@H]1O)C1=C[C@H](c2coc3ccccc3c2=O)C[C@H](OCCCCO)O1 | inactive: -5.65%
8 | CC(=O)c1ccc(NC(=O)COC(=O)C2CCN(S(=O)(=O)c3cccs3)CC2)cc1 | inconclusive: 20.9%
9 | Cc1ccc(S(=O)(=O)Nc2ccc3c(c2)C(=O)N([C@@H](C)CO)C[C@H](C)[C@@H](CN(C)C(=O)NC(C)C)OCCCC[C@@H](C)O3)cc1 | active: 22.4%
10 | O=C(C[n+]1ccsc1)c1ccccc1 | active: 31.4%
11 | COc1ccc(CCCc2nnc(SCC(=O)NN)o2)cc1 | inconclusive: 28.5%
12 | O=C(Nc1ccc(C(=O)O)cc1)/C(=C\C=C\c1ccccc1)NC(=O)c1cccc(Br)c1 | inactive: -6.54%
13 | CCOC(=O)N1CCN(c2ccnc3cc(Cl)ccc23)CC1 | inconclusive: 29.1%
14 | O=C1CCCCC1CCS(=O)(=O)NCc1ccccc1 (stereo unspecified) | inconclusive: 25.6%
15 | C[C@@H]1CN([C@H](C)CO)C(=O)c2cc(-c3ccccc3F)cnc2O[C@@H]1CN(C)C(=O)C1CC1 | inconclusive: 24.9%
16 | CC(=O)C(C)n1cnc2scc(-c3ccc(C)cc3)c2c1=O (stereo unspecified) | inconclusive: 20.1%
17 | CC(Sc1ccccc1)C(=O)NCC(c1ccco1)N1CCCCC1 (stereo unspecified) | active: 107%
18 | C[C@@H]1CN([C@H](C)CO)C(=O)c2cc(NS(C)(=O)=O)ccc2O[C@@H](C)CCCCO[C@@H]1CN(C)S(=O)(=O)c1ccc(Cl)cc1 | inactive: 0.67%
19 | O=C(Cc1cccnc1)N1CC2(C1)[C@@H](c1ccccc1)[C@@H](CO)N2C(=O)C1CCOCC1 | active: 22.3%
20 | CCc1ccc(N=Nc2ccc(O)c3[nH]cnc23)cc1 | inconclusive: 76.1%
21 | CC(NC(=O)COC(=O)C1CCCCC1)c1ccccc1 (stereo unspecified) | inconclusive: 42.2%
22 | C[C@H](CO)N1C[C@H](C)[C@@H](CN(C)C(=O)Nc2ccc(F)cc2)OCCCC[C@H](C)Oc2ccc(NS(=O)(=O)c3ccccc3)cc2C1=O | inactive: 4.71%
23 | C[C@@H]1CN([C@@H](C)CO)C(=O)c2cc(NC(=O)Nc3cccc4ccccc34)ccc2O[C@@H]1CN(C)S(=O)(=O)c1cn(C)cn1 | inactive: 9.21%

Rewritten with tabs: entries from further up.
Row	SMILES	CPE inhibition
2	CS(=O)(=O)Nc1ccc2c(c1)[C@@H]1C[C@@H](CC(=O)O)O[C@H](CO)[C@@H]1O2	inactive: -1.7%
13	CCOC(=O)N1CCN(c2ccnc3cc(Cl)ccc23)CC1	inconclusive: 29.1%

Continued.

Row | SMILES | CPE inhibition
24 | CC[C@@]1(C(=O)OC)N[C@H](CN(C)C(=O)Nc2ccc(C(F)(F)F)cc2)[C@@H]2C(=O)N(Cc3ccccc3)C(=O)[C@@H]21 | inconclusive: 29.4%
25 | O=C(C[C@@H]1CC[C@H]2[C@@H](COC[C@H](O)CN2C(=O)Nc2ccc(Cl)c(Cl)c2)O1)NCc1ccncc1 | inconclusive: 31.7%
26 | Oc1c(CN2CCCC2)cc(COCc2ccccc2)c2cccnc12 | inconclusive: 49.4%
27 | COc1ccc(NC(=O)N(C)C[C@H]2OCCCC[C@@H](C)Oc3ccc(NC(=O)NC4CCCCC4)cc3C(=O)N([C@H](C)CO)C[C@@H]2C)cc1 | inconclusive: 24%
28 | COCCn1ccc2c(OCC(=O)NCCc3ccccc3)cccc2c1=O | inconclusive: 68.1%
29 | COCC(=O)N1C[C@@H]2[C@H](c3ccccc31)[C@@H](CO)N2C(=O)Nc1ccccc1F | inconclusive: 25.8%
30 | COc1ccc(OC(=O)N(C)C[C@@H]2OCc3cn(nn3)CCCC(=O)N([C@@H](C)CO)C[C@H]2C)cc1 | inconclusive: 24.2% and inconclusive: 37.7%
31 | Cc1ccc(NC(=S)N2CCN(S(=O)(=O)c3ccccc3)CC2)cc1C | inconclusive: 48.6%
32 | CC(C)NC(=O)N(C)C[C@@H]1Oc2ccc(NS(=O)(=O)c3cn(C)cn3)cc2CC(=O)N([C@H](C)CO)C[C@@H]1C | inconclusive: 21.6%
33 | CCC(=O)N1[C@@H](CO)[C@@H](c2ccccc2)C12CN(C(=O)c1cnccn1)C2 | active: 21.9%
34 | N#CC(=C(O)COC(=O)CCCNC(=O)c1ccc(Cl)cc1)c1nc2ccccc2[nH]1 | inconclusive: 20.3%
35 | COc1cc(OC)cc(-c2c(C#Cc3ccsc3)c3cc(-c4cnc(OC)nc4)ccc3n2C)c1 | inconclusive: 49.5%
36 | COc1ccc(CN([C@H](CO)CC(C)C)S(=O)(=O)N(Cc2ccccc2)[C@H](CO)CC(C)C)cc1 | inconclusive: 22.8%
37 | COc1cc(C(=O)OC(C)C(=O)Nc2ccc3c(c2)OCCO3)cc(OC)c1OC (stereo unspecified) | inconclusive: 29.7%
38 | C[C@H](NC(=O)c1ccco1)C(=O)Nc1nc(-c2ccccn2)cs1 | inconclusive: 41.4%
39 | CCC(Oc1cccc(C)c1)C(=O)Nc1ccccc1C(=O)N1CCOCC1 (stereo unspecified) | inactive: 5.84%
40 | Cc1ccc(C)c(NC(=O)C(OC(=O)c2ccc(CO)cc2)c2ccccc2)c1 (stereo unspecified) | inactive: -4.23%
41 | O=C(NC(c1ccccc1)c1ccccc1)c1ccccc1 | inactive: -2.9%
42 | CCOc1ccc(NC(=O)C2CC(=O)N(CCc3ccccc3)C2)cc1OC (stereo unspecified) | active: 88.8%
43 | CCc1cc(=O)oc2cc(OC(C)C(=O)NCC(O)c3ccccc3)c(Cl)cc12 (stereo unspecified) | inconclusive: 31.9%
44 | C[C@@H]1CN([C@H](C)CO)C(=O)Cc2cc(NC(=O)Cc3cn(C)c4ccccc34)ccc2O[C@H]1CN(C)C(=O)NC1CCCCC1 | inactive: 0.0585%
45 | CC(=O)OCC=C1CCC2C3CCC4=CC(=O)CCC4(C)C3C(O)CC12C (stereo unspecified) | inconclusive: 36.2%
46 | C[C@@H]1CCCCO[C@@H](CN(C)C(=O)c2ccncc2)[C@H](C)CN([C@@H](C)CO)C(=O)c2cc(NC(=O)CCC(F)(F)F)ccc2O1 | inconclusive: 86.8%
